For assay [1], the target named is full length TSG101 C-terminally tagged with a Myc epitope (human) (UniProt Q99816). Put plainly: co-immunoprecipitation with anti Myc (figure legend).
For assay [2] the target is unchanged. Put plainly: co-immunoprecipitation with anti-Myc antibody from 293T lysates.
In assay [3] the target is Ebola VP40 (1-326) (Ebola virus (EBOV)) (UniProt Q05128). Briefly: Far Western (figure legend).

Protein sequences, listed by entry. Tags and fused reporters are not part of them. Lines headed by an entry give the natural chain unless they say otherwise; changes in a name come on top.
UniProt Q99816: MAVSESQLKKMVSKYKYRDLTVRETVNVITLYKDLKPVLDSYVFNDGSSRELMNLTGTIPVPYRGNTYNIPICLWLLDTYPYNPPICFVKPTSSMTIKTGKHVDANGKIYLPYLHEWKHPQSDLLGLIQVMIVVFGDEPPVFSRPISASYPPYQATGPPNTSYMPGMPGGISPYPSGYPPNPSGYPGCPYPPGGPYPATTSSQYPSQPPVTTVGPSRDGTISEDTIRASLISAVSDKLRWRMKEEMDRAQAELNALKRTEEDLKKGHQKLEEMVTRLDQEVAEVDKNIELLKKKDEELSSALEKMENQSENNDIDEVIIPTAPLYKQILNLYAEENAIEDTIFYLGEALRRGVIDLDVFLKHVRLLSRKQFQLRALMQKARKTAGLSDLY
UniProt Q05128: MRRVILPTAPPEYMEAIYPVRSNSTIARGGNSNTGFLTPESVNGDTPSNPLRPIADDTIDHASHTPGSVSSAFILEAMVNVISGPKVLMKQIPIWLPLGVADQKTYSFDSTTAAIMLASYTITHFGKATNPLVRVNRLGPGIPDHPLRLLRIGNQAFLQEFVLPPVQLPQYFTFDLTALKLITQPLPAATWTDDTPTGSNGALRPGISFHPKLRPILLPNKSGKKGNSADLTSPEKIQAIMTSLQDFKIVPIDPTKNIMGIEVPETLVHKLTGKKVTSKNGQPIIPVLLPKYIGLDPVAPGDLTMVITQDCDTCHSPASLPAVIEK

Results are given in words; binding and its absence hold for the method and conditions named. For part of these data: Binding seen in cells or lysates may run through a third protein. Some entries that bind do so weakly or less than the wild type.

“Ebola VP40 (1-326) (from UniProt Q05128 1-326)”: the binding result in assay [1] and in assay [2] was “binds” throughout.

As for “purified TSG101 protein that contains only the UEV domain (from UniProt Q99816 2-145)”, the binding entry in assay [3] is given as “binds”.
